Experimental data as given in patent publication US20240287166A1 (published 2024).
Changes are numbered by the printed parent chain. These are yes or no findings as the source states them, for the method shown. Some results given as binding are weak or reduced against the parent protein; the word gives no strength.

What was measured:
[1] = target: recombinant CSP (rCSP) (UniProt P19597); assay: binding ELISA on rCSP (summary for down selection)
[2] = target: recombinant CSP (rCSP) (UniProt P19597); assay: binding ELISA on rCSP, Expi293F supernatants (FIG. 2D)
[3] = target: recombinant CSP (rCSP) (UniProt P19597); assay: binding ELISA on rCSP, pooled mouse sera Day 10 (FIG. 2F)
[4] = target: recombinant CSP (rCSP) (UniProt P19597); assay: binding ELISA on rCSP, supernatants and mouse sera (FIG. 2)
[5] = target: recombinant CSP (rCSP) (UniProt P19597); assay: binding ELISA on rCSP, Expi293F supernatants, compared with mAb 311 (FIG. 2D)
[6] = target: recombinant CSP (rCSP) (UniProt P19597); assay: binding ELISA on rCSP, in vitro produced supernatants (FIG. 6B)

Measured: binding

B1: 10e DMAb-1 (antibody, human IgG1, lambda, V domains shown)
VH: QVQLVESGGGVVQPGRSLRLSCAASGFAFSNYGMNWVRQAPGKGLEWVAVIWHDGSLKYYTQSVKGRFTISRDNAKNTLFLQMDSLSADDTAMYYCTVWYLETPDDGFDIWGRGTMVTVSS
VL: QLVLTQPPSASASLGVSVTLTCTLSHGHTSKAIAWHQQQPGKGPRYLMKVNSDGSHTKGAAVPDRFSGSTSGAERHFTISNLQSDDEADYYCQAWDSGIWVFGGGTKLTVLG
not listed: [6]
binds: all other assays above

B2: 10e DMAb-2 (antibody, human IgG1, lambda, V domains shown)
VH: B1 VH with N35H, A75S, F80Y, D84N, S87R, D89E, M93V, R113Q
VL: B1 VL
notes: also called MGU10-based engineered DMAb 2; 10e DMAb-2 (MGU10 VH-1 / MGU10 VL)
binds: all assays above
